Measured values published in patent publication US20240199600A1, “CONDENSED HETEROCYCLIC COMPOUND HAVING A SULFONAMIDE GROUP OR SALT THEREOF, AGRICULTURAL OR HORTICULTURAL INSECTICIDE OR ANIMAL ECTOPARASITE OR ENDOPARASITE CONTROL AGENT COMPRISING THE COMPOUND OR THE SALT THEREOF, AND METHOD FOR USING THE COMPOUND OR THE SALT THEREOF, THE INSECTICIDE, OR THE …” (NIHON NOHYAKU CO., LTD., priority 2021, published 2024).
Some entries share one result that the patent states for a list of compounds. For at least one compound, name, drawing or mass did not settle the structure.

Legend:
Myzus persicae = experiment: Test for control efficacy on Myzus persicae (foliar application, potted Chinese cabbage); type: in vivo; details: 500 ppm, foliar application to Chinese cabbage plants, 6 days after application
Laodelphax striatelius = details: 500 ppm, rice seedlings dipped 30 seconds, 3rd-instar larvae, 8 days after inoculation
Plutella xylostella = details: 500 ppm, seedlings with laid eggs dipped about 30 seconds, 25° C., 6 days after dip treatment
Experimental: Insecticidal test on Plutella xylostella
Adults of P. xylostella were released onto Chinese cabbage seedlings and allowed to lay eggs thereon. […] After air-dried, the seedlings were kept in a thermostatic chamber at 25° C. […] This test was conducted in triplicate using 10 adults of P. xviostella per plot.
Corrected mortality rate (%)100×(Number of hatched larvae in a non-treatment plot-Number of hatched larvae in a treatment plot)/Number of hatched larvae in a non-treatment plot [Math. 3]

CN(C)S(=O)(=O)c1cc(-c2ccc(C=O)cc2)cnc1-c1nc2cc(C(F)(F)F)cnc2n1C [Compound 1-41]
control efficacy (control rate), activity level (Myzus persicae): A (the control rate is 100%) | insecticidal efficacy (corrected mortality rate), activity level (Laodelphax striatelius): A (the corrected mortality rate is 100%) | insecticidal efficacy (corrected mortality rate), activity level (Plutella xylostella): A (the corrected mortality rate is 100%)

Cc1csc(-c2cnc(-c3nc4cc(C(F)(F)F)cnc4n3C)c(S(=O)(=O)N(C)C)c2)n1 [Compound 1-61]
control efficacy (control rate), activity level (Myzus persicae): A (the control rate is 100%) | insecticidal efficacy (corrected mortality rate), activity level (Laodelphax striatelius): A (the corrected mortality rate is 100%) | insecticidal efficacy (corrected mortality rate), activity level (Plutella xylostella): A (the corrected mortality rate is 100%)

C=C(C)c1cnc(-c2nc3cc(C(F)(F)F)cnc3n2C)c(S(=O)(=O)N(C)C)c1 [Compound 1-31]
control efficacy (control rate), activity level (Myzus persicae): A (the control rate is 100%) | insecticidal efficacy (corrected mortality rate), activity level (Laodelphax striatelius): A (the corrected mortality rate is 100%) | insecticidal efficacy (corrected mortality rate), activity level (Plutella xylostella): A (the corrected mortality rate is 100%)

CN(C)S(=O)(=O)c1cc(N)cnc1-c1nc2cc(C(F)(F)F)cnc2n1C [Compound 1-28]
control efficacy (control rate), activity level (Myzus persicae): A (the control rate is 100%) | insecticidal efficacy (corrected mortality rate), activity level (Laodelphax striatelius): A (the corrected mortality rate is 100%) | insecticidal efficacy (corrected mortality rate), activity level (Plutella xylostella): A (the corrected mortality rate is 100%)

CN(C)S(=O)(=O)c1cc(-c2ccc(F)nc2)cnc1-c1nc2cc(C(F)(F)F)cnc2n1C [Compound 1-50]
control efficacy (control rate), activity level (Myzus persicae): A (the control rate is 100%) | insecticidal efficacy (corrected mortality rate), activity level (Laodelphax striatelius): A (the corrected mortality rate is 100%) | insecticidal efficacy (corrected mortality rate), activity level (Plutella xylostella): A (the corrected mortality rate is 100%)

CN(C)S(=O)(=O)c1cc(NC(=O)OC(C)(C)C)cnc1-c1nc2ccc(C(F)(F)F)cn2n1 [Compound 5-18]
control efficacy (control rate), activity level (Myzus persicae): A (the control rate is 100%) | insecticidal efficacy (corrected mortality rate), activity level (Laodelphax striatelius): A (the corrected mortality rate is 100%) | insecticidal efficacy (corrected mortality rate), activity level (Plutella xylostella): A (the corrected mortality rate is 100%)

CN(C)S(=O)(=O)c1cc(-c2ccc3c(c2)OCO3)cnc1-c1nc2cc(C(F)(F)F)cnc2n1C [Compound 1-47]
insecticidal efficacy (corrected mortality rate), activity level (Laodelphax striatelius): A (the corrected mortality rate is 100%) | insecticidal efficacy (corrected mortality rate), activity level (Plutella xylostella): A (the corrected mortality rate is 100%)

CSc1cccc(-c2cnc(-c3nc4cc(C(F)(F)F)cnc4n3C)c(S(=O)(=O)N(C)C)c2)c1 [Compound 1-39]
control efficacy (control rate), activity level (Myzus persicae): A (the control rate is 100%) | insecticidal efficacy (corrected mortality rate), activity level (Laodelphax striatelius): A (the corrected mortality rate is 100%) | insecticidal efficacy (corrected mortality rate), activity level (Plutella xylostella): A (the corrected mortality rate is 100%)

CN(C)S(=O)(=O)c1cc(Br)cnc1-c1nc2cc(C(F)(F)F)cnc2n1C [Compound 1-17]
control efficacy (control rate), activity level (Myzus persicae): A (the control rate is 100%) | insecticidal efficacy (corrected mortality rate), activity level (Laodelphax striatelius): A (the corrected mortality rate is 100%) | insecticidal efficacy (corrected mortality rate), activity level (Plutella xylostella): A (the corrected mortality rate is 100%)

CNS(=O)(=O)c1ccc(-n2cncn2)nc1-c1nc2cc(SC(F)(F)F)ccc2n1C [Compound 6-1]
control efficacy (control rate), activity level (Myzus persicae): A (the control rate is 100%)

CN(C)S(=O)(=O)c1cc(C2CC2)cnc1-c1nc2cc(S(=O)(=O)C(F)(F)F)ccc2o1 [Compound 4-8]
control efficacy (control rate), activity level (Myzus persicae): A (the control rate is 100%)

CNS(=O)(=O)c1cc(C(=NOCC(F)(F)F)C2CC2)cnc1-c1nc2cc(S(=O)(=O)C(F)(F)F)ccc2o1 [Compound 4-9]
control efficacy (control rate), activity level (Myzus persicae): A (the control rate is 100%)

COCCNC(=O)c1cnc(-c2nc3cc(SC(F)(F)F)ccc3o2)c(S(=O)(=O)N(C)C)c1 [Compound 4-16]
control efficacy (control rate), activity level (Myzus persicae): A (the control rate is 100%)

CN(C)S(=O)(=O)c1ccc(-n2cncn2)nc1-c1nc2cc(C(F)(F)F)cnc2n1C [Compound 7-2]
control efficacy (control rate), activity level (Myzus persicae): A (the control rate is 100%)

CN(C)S(=O)(=O)c1cc(-c2ccc(F)cc2)cnc1-c1nc2cc([S+]([O-])C(F)(F)F)ccc2o1 (stereo not shown) [Compound 4-17]
control efficacy (control rate), activity level (Myzus persicae): A (the control rate is 100%)

COC(=O)c1cnc(-c2nc3cc(SC(F)(F)F)ccc3o2)c(S(=O)(=O)N(C)C)c1 [Compound 4-12]
control efficacy (control rate), activity level (Myzus persicae): A (the control rate is 100%)

CNS(=O)(=O)c1cc(C2CC2)cnc1-c1nc2cc(SC(F)(F)F)ccc2o1 [Compound 4-3]
control efficacy (control rate), activity level (Myzus persicae): A (the control rate is 100%)

CNS(=O)(=O)c1cccnc1-c1nc2cc(SC(F)(F)F)ccc2o1 [Compound 4-1]
control efficacy (control rate), activity level (Myzus persicae): A (the control rate is 100%)

CN(C)C=Nc1cnc(-c2nc3cc(C(F)(F)F)cnc3n2C)c(S(=O)(=O)N(C)C)c1 [Compound 1-34]
control efficacy (control rate), activity level (Myzus persicae): A (the control rate is 100%)

CNS(=O)(=O)c1cc(C2CC2)cnc1-c1nc2cc([S+]([O-])C(F)(F)F)ccc2o1 (stereo not shown) [Compound 4-4]
control efficacy (control rate), activity level (Myzus persicae): A (the control rate is 100%)

CN(C)S(=O)(=O)c1cc(C(=NOCC(F)(F)F)C2CC2)cnc1-c1nc2cc(S(=O)(=O)C(F)(F)F)ccc2o1 [Compound 4-10]
control efficacy (control rate), activity level (Myzus persicae): A (the control rate is 100%)

CN(C)S(=O)(=O)c1cc(N=S(C)(C)=O)cnc1-c1nc2cc(C(F)(F)F)cnc2n1C [Compound 1-30]
control efficacy (control rate), activity level (Myzus persicae): A (the control rate is 100%)

CNS(=O)(=O)c1cc(C2CC2)cnc1-c1nc2cc(S(=O)(=O)C(F)(F)F)ccc2o1 [Compound 4-5]
control efficacy (control rate), activity level (Myzus persicae): A (the control rate is 100%)

CN(C)S(=O)(=O)c1cc(C(=O)NC2CC2)cnc1-c1nc2cc(SC(F)(F)F)ccc2o1 [Compound 4-15]
control efficacy (control rate), activity level (Myzus persicae): A (the control rate is 100%)

CN(C)S(=O)(=O)c1cc(-n2ccnn2)cnc1-c1nc2cc(C(F)(F)F)cnc2n1C [Compound 1-64]
control efficacy (control rate), activity level (Myzus persicae): A (the control rate is 100%)

CN(C)S(=O)(=O)c1ccc(-n2cncn2)nc1-c1nc2cc(SC(F)(F)F)ccc2n1C [Compound 6-2]
control efficacy (control rate), activity level (Myzus persicae): A (the control rate is 100%)

CN(C)S(=O)(=O)c1cc(C2CC2)cnc1-c1nc2cc([S+]([O-])C(F)(F)F)ccc2o1 (stereo not shown) [Compound 4-7]
control efficacy (control rate), activity level (Myzus persicae): A (the control rate is 100%)

Cn1c(-c2nc(-n3cncn3)ccc2S(=O)(=O)N2CCC2)nc2cc(C(F)(F)F)cnc21 [Compound 7-3]
control efficacy (control rate), activity level (Myzus persicae): A (the control rate is 100%)

CN(C)C(=O)c1cnc(-c2nc3cc(SC(F)(F)F)ccc3o2)c(S(=O)(=O)N(C)C)c1 [Compound 4-14]
control efficacy (control rate), activity level (Myzus persicae): A (the control rate is 100%)

CN(C)S(=O)(=O)c1cccnc1-c1nc2cc(SC(F)(F)F)ccc2o1 [Compound 4-2]
control efficacy (control rate), activity level (Myzus persicae): A (the control rate is 100%)

CNS(=O)(=O)c1ccc(-n2cncn2)nc1-c1nc2cc(C(F)(F)F)cnc2n1C [Compound 7-1]
control efficacy (control rate), activity level (Myzus persicae): A (the control rate is 100%)

CNC(=O)c1cnc(-c2nc3cc(SC(F)(F)F)ccc3o2)c(S(=O)(=O)N(C)C)c1 [Compound 4-13]
control efficacy (control rate), activity level (Myzus persicae): A (the control rate is 100%)
